PubChem BioAssay AID743454 – Peter MacCallum Cancer Centre | 2014
Screen: 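Search for knock-downs that restore vorinostat killing in resistant colon cancer cells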 (primary screen). Cells: human HCT116-VR colon cancer cells, selected for vorinostat resistance. Reagent: siRNA pool against human genes, 40 nM siRNA pool. Timing: vorinostat for 24 h, read-out about 72 h after transfection. Challenge: vorinostat at 2.5 µM final. Read-out: 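Cell viability by CellTiter-Fluor and caspase 3/7 activity by luminescence, each scaled to mock wells per plate, duplicates averaged, then robust z-scored over all plates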. Scale: viability robust z-score: higher = more viable cells than screen typical; caspase robust z-score: higher = more caspase 3/7 activity than screen typical. Call rule: 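Hits are knock-downs in viability class RV1/RV2 or caspase class CA1/CA2, excluding ones that killed cells in the no-drug cell-count arm; hits then retested with single siRNAs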.
This is an unselected part of about 18,000 reagents. 450 of them (2.5%) count as active. 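Single biological run; no consistent viability z cut-off exists, so the class columns, not z-scores, define the calls.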 A number with no mark means an inactive call. Reagent sequences are not shown.

TALDO1
- viability hit class: no change
- caspase hit class: no change
- viability robust z-score: 0.57
- caspase robust z-score: -0.74

TMED5
- viability hit class: no change
- caspase hit class: no change
- viability robust z-score: -0.22
- caspase robust z-score: -0.62

FLYWCH2
- viability hit class: no change
- caspase hit class: no change
- viability robust z-score: -0.61
- caspase robust z-score: 3.78

APOF
- viability hit class: no change
- caspase hit class: no change
- viability robust z-score: -2.16
- caspase robust z-score: 0.64

BICD2
- viability hit class: no change
- caspase hit class: no change
- viability robust z-score: 0.1
- caspase robust z-score: 2.66

HYOU1
- viability hit class: no change
- caspase hit class: no change
- viability robust z-score: 0.98
- caspase robust z-score: 0.49

HBQ1
- viability hit class: no change
- caspase hit class: no change
- viability robust z-score: -0.18
- caspase robust z-score: 1.98

ZEB2
- viability hit class: no change
- caspase hit class: no change
- viability robust z-score: -1.07
- caspase robust z-score: 2.53

LRIG1
- viability hit class: no change
- caspase hit class: no change
- viability robust z-score: -0.8
- caspase robust z-score: 2.07

KCNK10
- viability hit class: no change
- caspase hit class: no change
- viability robust z-score: 0
- caspase robust z-score: 0.05

CTC1
- viability hit class: no change
- caspase hit class: no change
- viability robust z-score: 1.02
- caspase robust z-score: -0.74

HSD3B1
- viability hit class: no change
- caspase hit class: no change
- viability robust z-score: -0.14
- caspase robust z-score: -0.79

C6
- viability hit class: no change
- caspase hit class: no change
- viability robust z-score: 0.89
- caspase robust z-score: -0.72

ABCA7
- viability hit class: no change
- caspase hit class: no change
- viability robust z-score: 1.27
- caspase robust z-score: -0.86

The list goes on (2 carried over from the part before).
C6
- viability hit class: no change
- caspase hit class: no change
- viability robust z-score: 0.89
- caspase robust z-score: -0.72

ABCA7
- viability hit class: no change
- caspase hit class: no change
- viability robust z-score: 1.27
- caspase robust z-score: -0.86

SSX7
- viability hit class: no change
- caspase hit class: no change
- viability robust z-score: 0.38
- caspase robust z-score: -0.84

ZMPSTE24
- viability hit class: no change
- caspase hit class: no change
- viability robust z-score: -0.29
- caspase robust z-score: 0.02

SAMD11
- viability hit class: no change
- caspase hit class: no change
- viability robust z-score: 0.34
- caspase robust z-score: -1.08

CCDC126
- viability hit class: no change (active)
- caspase hit class: CA1 (caspase activation)
- viability robust z-score: 0.54
- caspase robust z-score: 5.22

MDP1
- viability hit class: no change
- caspase hit class: no change
- viability robust z-score: 0.48
- caspase robust z-score: -0.02

ANXA11
- viability hit class: no change
- caspase hit class: no change
- viability robust z-score: 0.69
- caspase robust z-score: 0.1

ZNF630
- viability hit class: no change
- caspase hit class: no change
- viability robust z-score: -1.73
- caspase robust z-score: -1.02

CASP7
- viability hit class: no change
- caspase hit class: no change
- viability robust z-score: 0.39
- caspase robust z-score: -0.74

CBLN1
- viability hit class: no change
- caspase hit class: no change
- viability robust z-score: 0.02
- caspase robust z-score: 0.04

POLR2C
- viability hit class: no change
- caspase hit class: no change
- viability robust z-score: -3.12
- caspase robust z-score: 6.42

DRC5
- viability hit class: no change
- caspase hit class: no change
- viability robust z-score: 0.93
- caspase robust z-score: -0.1

CDC45
- viability hit class: no change
- caspase hit class: no change
- viability robust z-score: 0.09
- caspase robust z-score: 1.36

TMEM248
- viability hit class: no change
- caspase hit class: no change
- viability robust z-score: 0.32
- caspase robust z-score: -1.03
